{"source": "PubChem BioAssay AID493014", "about": "(National Center for Advancing Translational Sciences (NCATS), 2011)", "experiment": "qHTS Assay to Find Inhibitors of Chronic Active B-Cell Receptor Signaling", "details": "ABC-DLBCL IkBa-CBG/CBR reporter, luminescence ratio (green luciferase fused to IkBa over red control in TMD8 lymphoma cells), 4 h", "procedure,_shortened": "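TMD8 human ABC-DLBCL cells with doxycycline-inducible IκBα–green luciferase fusion and unfused red luciferase, in 0.5% FBS medium; compounds up to 46 uM, 4 h at 37C. Green/red luminescence ratio, filter-overlap corrected, fitted to concentration-response curves.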", "key": {"[1]": {"details": "measured here: CBR red luminescence, cell number"}}, "note": "The other results are listed elsewhere or left out. The main result of the screen is listed elsewhere. These columns were measured beside it and carry no call. Most of these compounds were active or inconclusive in the main read-out, so they are no random draw. Words in brackets tell the shape of the fitted curve; partial curves, single points and poor fits give uncertain potencies.", "data": [{"smiles": "C#CCOCCOCCOCCNc1nc(N2CCN(C(=O)CCCCCCCCCCNC(=O)[C@H](CCCCN)n3cc(C)nn3)CC2)nc(N2CCN(C(=O)CCCCCCCCCCNC(=O)[C@H](CO)n3cc(CCCSC)nn3)CC2)n1", "values": [{"measurement": "AC50", "setting": "[1]", "value": "3.26 µM [rising, partial curve, poor fit]"}]}, {"smiles": "COC(=O)COc1ccc(S(=O)(=O)NCc2ccco2)cc1", "values": [{"measurement": "AC50", "setting": "[1]", "value": "6.51 µM [falling, single point]"}]}, {"smiles": "Cc1ccc(C(=O)Nc2cc3c(cc2C)n(C)c(=O)c(=O)n3C)cc1", "values": [{"measurement": "AC50", "setting": "[1]", "value": "14.1 µM [falling, single point]"}]}, {"smiles": "COc1c(/C=N/NC(=O)c2ccncc2)c(CCN(C)C(C)=O)cc2c1OCO2", "values": [{"measurement": "AC50", "setting": "[1]", "value": "35.5 µM [falling, single point]"}]}, {"smiles": "Cc1cc(C)n(-c2ccc(C(=O)OCC(=O)Nc3ccc(S(=O)(=O)N4CCOCC4)cc3)cc2)n1", "values": [{"measurement": "AC50", "setting": "[1]", "value": "14.1 µM [rising, partial curve, poor fit]"}]}, {"smiles": "O=C(CN1N=C(c2ccc(Cl)cc2)CCC1=O)NCCc1ccc(Cl)cc1", "values": [{"measurement": "AC50", "setting": "[1]", "value": "35.5 µM [falling, single point]"}]}, {"smiles": "C=CCN1C(=O)[C@H]2CCC=C[C@H]2[C@@H]1c1cccc(C)c1", "values": [{"measurement": "AC50", "setting": "[1]", "value": "29.1 µM [rising, single point]"}]}, {"smiles": "COC(=O)c1c(CSc2ccc(C)c(C)c2)noc1C(=O)NCc1ccc(OC)cc1", "values": [{"measurement": "AC50", "setting": "[1]", "value": "2 µM [rising, full curve, poor fit]"}]}, {"smiles": "O=C(NCC1CCCO1)C1CCCN1C(=O)Nc1ccc(Cl)cc1", "note": "(configuration not stated)", "values": [{"measurement": "AC50", "setting": "[1]", "value": "31.6 µM [rising, single point]"}]}, {"smiles": "Cc1c(C(=O)N2CCN(Cc3ccc4c(c3)OCO4)CC2)sc2ncnc(N3CCN(c4ccccc4F)CC3)c12", "values": [{"measurement": "AC50", "setting": "[1]", "value": "12.6 µM [falling, partial curve]"}]}, {"smiles": "COC(=O)c1ccc(/C=N/OCC(=O)NCCc2ccc(OC)c(OC)c2)cc1", "values": [{"measurement": "AC50", "setting": "[1]", "value": "15.8 µM [rising, partial curve, poor fit]"}]}, {"smiles": "CC/C(=N\\NC(=O)C1CC1)c1cccc(Cl)c1", "values": [{"measurement": "AC50", "setting": "[1]", "value": "8.91 µM [rising, partial curve, poor fit]"}]}, {"smiles": "O=C(c1cccs1)N(C(=O)c1cccs1)c1ccc(Br)cn1", "values": [{"measurement": "AC50", "setting": "[1]", "value": "5.8 µM [falling, full curve, poor fit]"}]}, {"smiles": "Cc1ccc(S(=O)(=O)c2nc(S(C)(=O)=O)sc2N2CCCCC2C)cc1", "note": "(configuration not stated)", "values": [{"measurement": "AC50", "setting": "[1]", "value": "17.8 µM [falling, partial curve]"}]}, {"smiles": "CC(=O)Nc1ccc(-c2csc(NC(=O)Nc3ccccc3)n2)cc1", "values": [{"measurement": "AC50", "setting": "[1]", "value": "35.5 µM [falling, single point]"}]}, {"smiles": "CSc1ccccc1C(=O)Nc1nc2ccccc2c(=O)[nH]1", "values": [{"measurement": "AC50", "setting": "[1]", "value": "0.501 µM [falling, full curve]"}]}, {"smiles": "O=c1cc(COc2ccc(Cl)c(Cl)c2)nc2sccn12", "values": [{"measurement": "AC50", "setting": "[1]", "value": "5.01 µM [rising, full curve, poor fit]"}]}, {"smiles": "CCc1cccc(CC)c1NC(=O)CN1CCN(S(=O)(=O)c2ccccc2)CC1", "values": [{"measurement": "AC50", "setting": "[1]", "value": "0.0891 µM [falling, full curve, poor fit]"}]}, {"smiles": "O=C(Nc1ccc(N2CCN(C(=O)c3ccccc3)CC2)c(Cl)c1)c1ccc(Br)o1", "values": [{"measurement": "AC50", "setting": "[1]", "value": "17.8 µM [falling, single point]"}]}, {"smiles": "Cc1sc(NC(=O)c2cc(-c3ccccc3)nc3ccccc23)c(C(N)=O)c1C", "values": [{"measurement": "AC50", "setting": "[1]", "value": "18.4 µM [falling, partial curve, poor fit]"}]}, {"smiles": "Cc1cc(C(=O)C(C)Sc2cccc[n+]2[O-])c(C)n1-c1ccc(Cl)cc1", "note": "(configuration not stated)", "values": [{"measurement": "AC50", "setting": "[1]", "value": "11.2 µM [falling, partial curve, poor fit]"}, {"measurement": "AC50", "setting": "measured here: IkBa-CBG green luminescence", "value": "35.5 µM [falling, single point]"}]}, {"smiles": "CCOc1ccc(NC(=O)CC2SC(=O)N(c3ccccc3)C2=O)cc1", "note": "(configuration not stated)", "values": [{"measurement": "AC50", "setting": "[1]", "value": "22.4 µM [falling, partial curve, poor fit]"}]}, {"smiles": "O=C(Nc1ccc2oc(=O)ccc2c1)c1ccccc1[N+](=O)[O-]", "values": [{"measurement": "AC50", "setting": "[1]", "value": "7.94 µM [falling, partial curve, poor fit]"}]}, {"smiles": "S=C(Nc1ccccc1)N1CCN(C2CCCCC2)CC1", "values": [{"measurement": "AC50", "setting": "[1]", "value": "23.1 µM [rising, partial curve]"}]}, {"smiles": "CC(C)N1C(=O)C2ON(c3ccccc3)C(c3cccs3)C2C1=O", "note": "(configuration not stated)", "values": [{"measurement": "AC50", "setting": "[1]", "value": "6.51 µM [falling, single point]"}]}, {"smiles": "O=C(c1ccccc1OCc1ccccc1Br)N1CCN(c2ncccn2)CC1", "values": [{"measurement": "AC50", "setting": "[1]", "value": "20 µM [falling, single point]"}]}, {"smiles": "Cn1cc(C(=O)Nc2ccc3c(c2)CCC3)cn1", "values": [{"measurement": "AC50", "setting": "[1]", "value": "7.31 µM [rising, partial curve]"}]}, {"smiles": "O=C(NCCC(=O)N1CCNC1=O)OCc1ccccc1", "values": [{"measurement": "AC50", "setting": "[1]", "value": "23.1 µM [falling, single point]"}]}, {"smiles": "Cc1cc(C)c2c(N)c(C(=O)N3CCN(c4ncccn4)CC3)sc2n1", "values": [{"measurement": "AC50", "setting": "[1]", "value": "6.51 µM [rising, partial curve]"}]}, {"smiles": "Cc1cc(Cl)c2oc(C(=O)N3CCN(C4CCS(=O)(=O)C4)CC3)c(C)c2c1", "note": "(configuration not stated)", "values": [{"measurement": "AC50", "setting": "[1]", "value": "15.8 µM [rising, partial curve, poor fit]"}]}, {"smiles": "COc1ccccc1Cn1c(=S)[nH]c2ccc(Br)cc2c1=O", "values": [{"measurement": "AC50", "setting": "[1]", "value": "0.1 µM [rising, full curve, poor fit]"}]}]}
